{"source": "paper PMC6517398", "key": {"ovalbumin (OVA)": {"biological_target": "T1, ovalbumin (OVA) (UniProt P01012)", "T1 sequence (looked up, limits assumed)": "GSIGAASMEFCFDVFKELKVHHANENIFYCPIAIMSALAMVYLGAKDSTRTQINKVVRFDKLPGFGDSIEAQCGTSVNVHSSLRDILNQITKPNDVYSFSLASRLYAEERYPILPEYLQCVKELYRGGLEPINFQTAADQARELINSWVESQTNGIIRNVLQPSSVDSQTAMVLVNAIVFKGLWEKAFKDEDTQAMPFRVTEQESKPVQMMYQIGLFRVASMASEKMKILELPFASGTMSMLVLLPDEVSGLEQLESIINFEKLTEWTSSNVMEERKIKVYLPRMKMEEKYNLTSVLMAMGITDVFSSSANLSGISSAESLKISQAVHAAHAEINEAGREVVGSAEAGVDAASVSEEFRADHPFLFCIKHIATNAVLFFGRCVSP", "experiment": "flow cytometry of coated beads", "conditions": "binding very weak; PBS (pH not stated), 200 uL, 30 min, room temperature; 2x10^5 coated beads with 20-40 pmol FAM-ssDNA (cells: 40-60 pmol); washed once or twice with PBS; commercial protein; single-stranded DNA"}, "[1]": {"biological_target": "bovine serum albumin (BSA) (bovine) (UniProt P02769)", "experiment": "flow cytometry of coated beads", "conditions": "binding very weak; PBS (pH not stated), 200 uL, 30 min, room temperature; 2x10^5 coated beads with 20-40 pmol FAM-ssDNA (cells: 40-60 pmol); washed once or twice with PBS; commercial protein; single-stranded DNA"}, "trypsin": {"tested_on": "trypsin", "experiment": "flow cytometry of coated beads", "conditions": "binding very weak; PBS (pH not stated), 200 uL, 30 min, room temperature; 2x10^5 coated beads with 20-40 pmol FAM-ssDNA (cells: 40-60 pmol); washed once or twice with PBS; commercial protein; single-stranded DNA"}, "[2]": {"biological_target": "OFA/iLRP (immature laminin receptor protein) on cells (UniProt P08865)", "experiment": "flow cytometry and confocal microscopy of cells", "conditions": "PBS (pH not stated), 200 uL, 30 min, room temperature, 2x10^5 coated beads with 20-40 pmol FAM-ssDNA (cells: 40-60 pmol), washed once or twice with PBS, protein on the cell surface, single-stranded DNA"}}, "note": "For part of these data: The comparison behind a weaker result is the experiment's own reference, which may not be listed here. For part of these data: Protein sequences can lack the tags named with them. For part of these data: Construct, isoform or probe ends are uncertain for at least one entry. For part of these data: At least one result comes from cells or an extract, where the contact may be indirect. For part of these data: At least one verdict rests on a figure or table, not on a statement of the authors.", "data": [{"sequence": "TGCGTGTGTAGTGTGTCTGTTGTTTGTATTGTTGTCTATCCTCTTAGGGATTTGGGCGG [AB3]", "values": [{"measurement": "binding result", "setting": "ovalbumin (OVA)", "result": "binds more weakly"}, {"measurement": "binding result", "setting": "[1]", "result": "binds more weakly"}, {"measurement": "binding result", "setting": "trypsin", "result": "binds more weakly"}, {"measurement": "binding result", "setting": "[2]; HL-60 cells, binding nearly abolished after trypsin or proteinase K, OFA/iLRP-negative PBMC bound weakly", "result": "binds"}, {"measurement": "binding result", "setting": "[2]; Jurkat cells", "result": "binds"}, {"measurement": "binding result", "setting": "[2]; Ramos cells", "result": "binds"}]}]}
